PubChem BioAssay AID504784 | Drosophila RNAi Screening Center, 2011

Assay: 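Genome-wide knock-down for genes giving too much or too little stored lipid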 (primary screen)
Cells: Drosophila Kc167 embryonic cells
Knock-down reagent: long dsRNA against Drosophila genes, about 250 ng dsRNA per well
Timing: 4 days
Challenge: cells fed 400 µM oleic acid bound to BSA
Measurement: 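Cells imaged and segmented; ratio of lipid droplet area to nuclear area, log-transformed, then normalised as a B-score over the screen; higher means more stored lipid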
Reading the numbers: droplet/nuclear area B-score: higher = more stored lipid (overstorage)
In all, the deposit lists about 17,000 reagents; below is an unselected part of those with a known target gene and a result. 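Each column is one replicate's B-score; the combined score over replicates was not deposited, so single values may mislead.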 The numbers tell different reagents against one gene apart. A plus sign joins genes that one reagent is predicted to hit.

no.	gene knocked down	dsRNA no.	droplet/nuclear area B-score, replicate 1	droplet/nuclear area B-score, replicate 2	droplet/nuclear area B-score, replicate 3
1	Tusp	1	-1.29	-0.244	
2	CG18586	1	0.469	0.388	
3	Bcat (Branched chain amino acid transaminase)	1	0.791	0.0594	0.645
4	CG3376	1	-0.904	1.48	
5	CG1571	1	0.0432	0.886	
6	CG13659	1	-0.272	0.203	
7	twf (twinfilin)	1	0.699	6.27	
8	GluRIB + CG42509 (retired record)	1	0.656	-0.34	
9	GluRIB + CG42509 (retired record)	2	0.00201	0.223	
10	Cdc2rk (Cdc2-related kinase)	1	-0.704	-0.1	
11	CG4278	1	0.851	0.896	
12	AnxB10 (Annexin B10)	1	-0.265	-0.0458	
13	eEF1delta (eukaryotic translation elongation factor 1 delta)	1	-0.993	1.2	
14	CG3434	1	-0.893	-0.302	
15	mRpL24 (mitochondrial ribosomal protein L24)	1	4.53	1.76	
16	D2hgdh (D-2-hydroxyglutaric acid dehydrogenase)	1	-0.324		
17	CG6321	1	-1.09	-0.816	
18	CG1582	1	0.377	0.173	-0.857
19	CG13186	1	-2.45	-0.618	
20	CG8888	1	-4.53	0.725	
21	CG8888	2	0.777	-1.71	
22	ltl (larval translucida)	1	-1.17	0.968	
23	ltl (larval translucida)	2	2.25	-0.41	
24	CG31496	1	-0.0218	-1.02	
25	Etf-QO (Electron transfer flavoprotein-ubiquinone oxidoreductase)	1	1.86	-0.0798	
26	CG4151	1	0.165	-0.609	
27	mTerf5 (mitochondrial transcription termination factor 5)	1	-0.977	-0.197	
28	smg (smaug)	1	-0.257	-0.653	
29	CG42361	1	-0.334	1.34	
30	CG12920	1	1.17	0.779	
31	CG2126	1	-0.958	-0.463	
32	CG31704	1	0.435	0.448	
33	rho-6 (rhomboid-6)	1	-1.06	-0.808	
34	zld (zelda)	1	-0.993	-1.07	
35	zld (zelda)	2	2.38	-0.985	
36	CG10431	1	-1.31	-1.78	
37	CG15611	1	1.92	-0.0245	
38	CG15611	2	1.49	-0.984	
39	Mrgn1 (Mahogunin ring finger 1)	1	0.391	0.524	-0.559
40	CG34133	1	-0.0605	2.04	
41	CG34133	2	-1.1	-1.36	
42	Usp8 (Ubiquitin specific protease 8)	1	-0.663	-0.315	
43	C901	1	-0.115	0.126	1.05
44	CG12581	1	-1.37	0.382	-0.844
45	CG12581	2	0.0489	0.228	
46	Or1a (Odorant receptor 1a)	1	1.78	0.0132	
47	CG6296	1	-0.488	3.34	
48	Rsph3 (Radial spoke head protein 3)	1	-0.181	-0.0456	
49	Rsph3 (Radial spoke head protein 3)	2	-1.03	-0.25	
50	CG31301	1	0.0558		
51	CG30096	1	1.22	1.44	
52	shv (shriveled)	1	0.253	1.01	
53	shv (shriveled)	2	-0.718	-1.25	
54	CG2116	1	1.57	0.766	0.119
55	CG13962	1	-0.423	-0.141	
56	PNPase (Polynucleotide phosphorylase)	1	1.2	-1.38	
57	CG13901	1	0.874	-0.553	
58	CG14325	1	2.34	1.63	
59	CG2246	1	-1.32	1.37	
60	Jhbp4 (Juvenile hormone binding protein 4)	1	0.0645	1.16	
61	egg (eggless)	1	0.362	1.04	
62	egg (eggless)	2	0.77	1.84	
63	osa	1	0.616	2.45	
64	CG3726	1	-2.06	-1.97	-0.636
65	CG3726	2	1.1	-0.357	
66	Fer2LCH (Ferritin 2 light chain homologue)	1	0.344	0.195	
67	CG13386	1	-0.123	0.924	
68	Sos (Son of sevenless)	1	1.7	0.602	
69	CG13511	1	0.278	-1.1	
70	CG34260 + cmpy	1	1.15	0.751	
71	CG11634	1	0.576	-0.176	
72	sncRNA:430e + His2A:CG33859 + His2A:CG33817 + 37 more	1	-1.13	-1.19	
73	Acp29AB (Accessory gland protein 29AB)	1	5.07	0.41	
74	CG33253	1	0.268	0.0509	
75	CG33253	2	-0.553	-0.399	
76	Zw10 (Zeste-white 10)	1	-1.64	5.32	
77	CG15034	1	-0.925	-0.978	
78	CG13055	1	-1.35	-1.59	
79	Syx4 (Syntaxin 4)	1	0.739	0.385	
80	rogdi	1	-2.55	0.783	-0.999
81	Dtg (Dpp target gene)	1	-4.54	0.0913	
82	ECSIT	1	-0.852	-0.569	
83	COX6AL (Cytochrome c oxidase subunit 6A-like)	1	0.037	0.564	
84	Cpr56F (Cuticular protein 56F)	1	0.894	-0.00884	
85	exex (extra-extra)	1	-0.35	-0.587	
86	CG4281	1	-0.258	1.34	
87	jb (jean-baptiste)	1	-0.934	-0.477	
88	Caf1-180 (Chromatin assembly factor 1, p180 subunit)	1	-0.346	-0.8	0.144
89	brp (bruchpilot)	1	-0.0497	-0.505	
90	brp (bruchpilot)	2	-1.11	-1.34	
91	brp (bruchpilot)	3	-0.814	0.138	
92	brp (bruchpilot)	4	4.66	2.5	
93	Pu (Punch)	1	-0.349	-4.49	
94	side-V (sidestep V)	1	-0.925	-1.45	-0.0838
95	side-V (sidestep V)	2	-0.0861	-0.254	
96	side-V (sidestep V)	3	0.0304	3.22	
97	CG13102	1	-2.42	0.246	
98	mst (misato)	1	-1.98	1.46	
99	dac (dachshund)	1	-0.273	2.7	
100	CG16717	1	-0.055	-0.433	
101	CG7448 (retired record)	1	-0.791	-1.9	1.17
102	CG7448 (retired record)	2	-1.61	1.25	
103	PIG-Wb (Phosphatidylinositol glycan anchor biosynthesis class W b)	1	-0.535	1.64	
104	CG30184	1	-0.0566	-0.0316	
105	E(spl)m4-BFM (Enhancer of split m4, Bearded family member)	1	-0.639	-1.01	

Taken from above.
CG18586, droplet/nuclear area B-score, replicate 1 = 0.469
Result for eEF1delta (eukaryotic translation elongation factor 1 delta) in “droplet/nuclear area B-score, replicate 2”: 1.2
Under “droplet/nuclear area B-score, replicate 2”, Cpr56F (Cuticular protein 56F) is entered as -0.00884
Jhbp4 (Juvenile hormone binding protein 4), droplet/nuclear area B-score, replicate 1 = 0.0645
CG11634, droplet/nuclear area B-score, replicate 1 = 0.576
CG15611 #1, droplet/nuclear area B-score, replicate 1 → 1.92
